Measured values: publication doi:10.1101/414367
No constants are given. Whether binding was seen depends on the method and setting. Binding seen in cells or lysates may run through a third protein. Here binding means that the protein was enriched with, or labelled near, the bait; the list need not be complete. Where a sequence is shown, tags or fusion partners need not be part of it.

T1: Cex1-HA (S. cerevisiae) (UniProt Q12453)
T1 sequence: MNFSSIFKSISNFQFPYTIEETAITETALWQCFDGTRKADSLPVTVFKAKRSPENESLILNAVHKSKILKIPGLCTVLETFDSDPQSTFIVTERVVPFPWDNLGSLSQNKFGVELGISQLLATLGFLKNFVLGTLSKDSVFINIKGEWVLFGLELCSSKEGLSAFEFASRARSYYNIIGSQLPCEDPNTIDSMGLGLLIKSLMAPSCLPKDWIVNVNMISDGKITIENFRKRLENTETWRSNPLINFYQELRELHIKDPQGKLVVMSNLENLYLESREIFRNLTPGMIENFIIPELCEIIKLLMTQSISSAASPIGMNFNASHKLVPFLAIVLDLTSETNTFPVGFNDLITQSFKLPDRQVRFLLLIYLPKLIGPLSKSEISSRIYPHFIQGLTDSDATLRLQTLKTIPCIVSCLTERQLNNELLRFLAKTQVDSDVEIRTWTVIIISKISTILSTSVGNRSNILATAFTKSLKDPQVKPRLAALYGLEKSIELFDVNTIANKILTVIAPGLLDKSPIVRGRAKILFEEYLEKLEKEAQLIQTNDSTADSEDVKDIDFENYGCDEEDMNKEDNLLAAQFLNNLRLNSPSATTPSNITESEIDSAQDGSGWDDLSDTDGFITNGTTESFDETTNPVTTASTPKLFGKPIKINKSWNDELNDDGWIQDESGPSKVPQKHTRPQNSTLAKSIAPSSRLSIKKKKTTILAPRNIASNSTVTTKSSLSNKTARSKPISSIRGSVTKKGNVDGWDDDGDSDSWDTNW


Molecular target: T1, Cex1-HA (S. cerevisiae)
Experiment: affinity purification with mass spectrometry

binding | Binder
binds | Sec28 (protein, UniProt P40509 1-296) MDYFNIKQNYYTGNFVQCLQEIEKFSKVTDNTLLFYKAKTLLALGQYQSQDPTSKLGKVLDLYVQFLDTKNIEELENLLKDKQNSPYELYLLATAQAILGDLDKSLETCVEGIDNDEAEGTTELLLLAIEVALLNNNVSTASTIFDNYTNAIEDTVSGDNEMILNLAESYIKFATNKETATSNFYYYEELSQTFPTWKTQLGLLNLHLQQRNIAEAQGIVELLLSDYYSVEQKENAVLYKPTFLANQITLALMQGLDTEDLTNQLVKLDHEHAFIKHHQEIDAKFDELVRKYDTSN
binds | Spc110 (protein, UniProt P32380 1-944) MDEASHLPNGSLKNMEFTPVGFIKSKRNTTQTQVVSPTKVPNANNGDENEGPVKKRQRRSIDDTIDSTRLFSEASQFDDSFPEIKANIPPSPRSGNVDKSRKRNLIDDLKKDVPMSQPLKEQEVREHQMKKERFDRALESKLLGKRHITYANSDISNKELYINEIKSLKHEIKELRKEKNDTLNNYDTLEEETDDLKNRLQALEKELDAKNKIVNSRKVDDHSGCIEEREQMERKLAELERKLKTVKDQVLELENNSDVQSLKLRSKEDELKNLMNELNELKSNAEEKDTQLEFKKNELRKRTNELNELKIKSDEMDLQLKQKQNESKRLKDELNELETKFSENGSQSSAKENELKMLKNKIAELEEEISTKNSQLIAKEGKLASLMAQLTQLESKLNQRDSQLGSREEELKKTNDKLQKDIRIAREETVSKDERIIDLQKKVKQLENDLFVIKKTHSESKTITDNELESKDKLIKILENDLKVAQEKYSKMEKELKEREFNYKISESKLEDEKTTLNEKISNLAAENSQLKNKIEDNSTATHHMKENYEKQLESLRKDIEEYKESAKDSEDKIEELKIRIAENSAKVSEKRSKDIKQKDEQISDLTQNLKLQEDEISSLKSIIDRYKKDFNQLKSEQSNIQHDLNLQILNLENKLIESEDELKSLRDSQKIEIENWKRKYNNLSLENDRLLTEKESASDKEREISILNRKLDEMDKEKWNLQESKEKYKRELQKVITANDRLRREKEELNENSNNIRIMEDKMTRIKKNYLSEITSLQEENRRLEERLILNERRKDNDSTMQLNDIISYYKLKYHSEVRHNNDLKVINDYLNKVLALGTRRLRLDTRKGEHSLNISLPDDDELDRDYYNSHVYTRYHDYEYPLRFNLNRRGPYFERRLSFKTVALLVLACVRMKRIAFYRRSDDNRLRILRDRIESSSGRISW
binds | Sec33 (protein, UniProt P53622 1-1201) MKMLTKFESKSTRAKGIAFHPSRPWVLVALFSSTIQLWDYRMGTLLHRFEDHEGPVRGLDFHPTQPIFVSAGDDYTIKVWSLDTNKCLYTLTGHLDYVRTVFFHRELPWIISASDDQTIRIWNWQNRKEIACLTGHNHFVMCAQFHPTDDLIVSASLDETIRIWDISGLRKRHSAPGTSSFEEQMSAQQNLLDGSLGDCVVKFILEGHTRGVNWASFHPTLPLIVSGSDDRQVKLWRMSATKAWEVDTCRGHTNNVDSVIFHPHQNLIISVGEDKTLRVWDLDKRTPVKQFKRENDRFWLIAAHPHINLFGAAHDSGIMVFKLDRERPCSFIHQNQLFFVNAEKQIQSFNFQKRVASLPYASLKGIGQPWDAFRSISYNPSQHSVLVNEANGKFALVILPKQPVGAVEPTSVTQDTGNFATFVGRNRFVVYNKNTESVEVRSLENKVTRNIKVEETVRTIVAAGPGSVLVIHPREVILYDVQQGKKVSQLAVKNVKYVSWSLDGQYVALMSKHTITLATKKLELINSMHETIRIKSAAWDETGVLIYSTLNHIRYSLLNGDRGIIKTLEKTLYITKVQGKLVYCLNREGEIEILTIDPTEYRFKKALVNKNFPEVLRLIKDSNLVGQNIISYLQKSGYPEIALQFVQDPHIRFDLALEYGNLDVALDEAKKLNDSSTWERLIQEALAQGNASLAEMIYQTQHSFDKLSFLYLVTGDVNKLSKMQNIAQTREDFGSMLLNTFYNNSTKERSSIFAEGGSLPLAYAVAKANGDEAAASAFLEQAEVDEQDVTLPDQMDASNFVQRPVISKPLEKWPLKEAELSYFEKAVLGQIDDLTIDDETPAVNTTQEQEEPLGEENFNDEDIGEDEGAWDLGDEDLDVGEELPEEVEQGEITSPAQEVETAIWIKNSKLPAVLVAAGAFDAAVQALSKQVGVVKLEPLKKYFTNIYEGCRTYIPSTPCELPAQLGYVRAYDDTVSEDQILPYVPGLDVVNEKMNEGYKNFKLNKPDIAIECFREAIYRITLLMVDDAEDEKLAHKILETAREYILGLSIELERRSLKEGNTVRMLELAAYFTKAKLSPIHRTNALQVAMSQHFKHKNFLQASYFAGEFLKIISSGPRAEQARKIKNKADSMASDAIPIDFDPYAKFDICAATYKPIYEDTPSVSDPLTGSKYVITEKDKIDRIAMISKIGAPASGLRIRV
binds | Mps2 (protein, UniProt P53159 1-387) MSNGAFDAIFEYAWGQIDKPISGDFIYGKDLPKLIEIIENIFQKAQKSGSYELRLPLFSEINKDLFRTFSNTKTFFKIHKEEFDDIFFNLVNHPLREILENAFIGVDSIPSDFIVSMNLNSPSKFLVENKNKNTEGAGISTPRKKLTESPIKLLSRNNIGKALEVQVEELKRELTAKQSLLQENERQVSELKIRLETYQEKYASIQQRFSDLQKARQVEDNQNSSRTSDPGSPLVTGIDQKAILEEFRRRLQRQTDTISFLKDQIRRERGLNCSNDKVSHSKRKHATTDGDGTFKNFISAVPSNIWVKATIRIIVCFALLAGVLPYIRKYVYAHDTPSQNSRLQLSWWENSGILSKIVWFFEDQTDLETEYRSNANVDDAYSRVFGI
binds | Sec27 (protein, UniProt P41811 1-889) MKLDIKKTFSNRSDRVKGIDFHPTEPWVLTTLYSGRVELWNYETQVEVRSIQVTETPVRAGKFIARKNWIIVGSDDFRIRVFNYNTGEKVVDFEAHPDYIRSIAVHPTKPYVLSGSDDLTVKLWNWENNWALEQTFEGHEHFVMCVAFNPKDPSTFASGCLDRTVKVWSLGQSTPNFTLTTGQERGVNYVDYYPLPDKPYMITASDDLTIKIWDYQTKSCVATLEGHMSNVSFAVFHPTLPIIISGSEDGTLKIWNSSTYKVEKTLNVGLERSWCIATHPTGRKNYIASGFDNGFTVLSLGNDEPTLSLDPVGKLVWSGGKNAAASDIFTAVIRGNEEVEQDEPLSLQTKELGSVDVFPQSLAHSPNGRFVTVVGDGEYVIYTALAWRNKAFGKCQDFVWGPDSNSYALIDETGQIKYYKNFKEVTSWSVPMHSAIDRLFSGALLGVKSDGFVYFFDWDNGTLVRRIDVNAKDVIWSDNGELVMIVNTNSNGDEASGYTLLFNKDAYLEAANNGNIDDSEGVDEAFDVLYELSESITSGKWVGDVFIFTTATNRLNYFVGGKTYNLAHYTKEMYLLGYLARDNKVYLADREVHVYGYEISLEVLEFQTLTLRGEIEEAIENVLPNVEGKDSLTKIARFLEGQEYYEEALNISPDQDQKFELALKVGQLTLARDLLTDESAEMKWRALGDASLQRFNFKLAVEAFTNAHDLESLFLLHSSFNNKEGLVTLAKDAERAGKFNLAFNAYWIAGDIQGAKDLLIKSQRFSEAAFLGSTYGLGDDAVNDIVTKWKENLILNGKNTVSERVCGAEGLPGSSSSGDAQPLIDLDSTPAPEQADENKEAEVEDSEFKESNSEAVEAEKKEEEAPQQQQSEQQPEQGEAVPEPVEEES
binds | Sec26 (protein, UniProt P41810 1-973) MTSLSSQPAYTLVFDPSPSMETYSSTDFQKALEKGSDEQKIDTMKSILVTMLEGNPMPELLMHIIRFVMPSKNKELKKLLYFYWEIVPKLAEDGKLRHEMILVCNAIQHDLQHPNEYIRGNTLRFLTKLREAELLEQMVPSVLACLEYRHAYVRKYAILAVFSIFKVSEHLLPDAKEIINSFIVAETDPICKRNAFIGLAELDRENALHYLENNIADIENLDPLLQAVFVQFIRQDANRTPALKAQYIELLMELLSTTTSDEVIFETALALTVLSANPNVLVPAVNKLIDLAVKVSDNNIKLIVLDRIQDINANNVGALEELTLDILRVLNAEDLDVRSKALDISMDLATSRNAEDVVQLLKKELQTTVNNPDQDKAMQYRQLLIKTIRTVAVNFVEMAASVVSLLLDFIGDLNSVAASGIIAFIKEVIEKYPQLRANILENMVQTLDKVRSAKAYRGALWIMGEYAEGESEIQHCWKHIRNSVGEVPILQSEIKKLTQNQEHTEENEVDATAKPTGPVILPDGTYATESAFDVKTSQKSVTDEERDSRPPIRRFVLSGDFYTAAILANTIIKLVLKFENVSKNKTVINALKAEALLILVSIVRVGQSSLVEKKIDEDSLERVMTSISILLDEVNPEEKKEEVKLLEVAFLDTTKSSFKRQIEIAKKNKHKRALKDSCKNIEPIDTPISFRQFAGVDSTNVQKDSIEEDLQLAMKGDAIHATSSSSISKLKKIVPLCGFSDPVYAEACITNNQFDVVLDVLLVNQTKETLKNLHVQFATLGDLKIIDTPQKTNVIPHGFHKFTVTVKVSSADTGVIFGNIIYDGAHGEDARYVILNDVHVDIMDYIKPATADDEHFRTMWNAFEWENKISVKSQLPTLHAYLRELVKGTNMGILTPSESLGEDDCRFLSCNLYAKSSFGEDALANLCIEKDSKTNDVIGYVRIRSKGQGLALSLGDRVALIAKKTNKLALTHV
binds | Cnm67 (protein, UniProt P53865 1-581) MTDFDLMNFPFHERLDSPVSENGEIKDGEPIPQNWLNENHVGKSILPLFVNPEDVINCNFSNARDSYEENKSPSMDQMNYARNTSYQESPGLQERPKNEKDKSPIGTDVHKKDVPNFIHSTPRENSSKHFTRANEQASAQPTDEHTSPDISIEDCNGAKIFLQNSLSKEDFRMLENVILGYQKKVIELGRDNLRQEERANSLQKELEAATKSNDKTLDNKKKIEEQTVLIENLTKDLSLNKEMLEKANDTIQTKHTALLSLTDSLRKAELFEIPIGILFFDLYDSEENSSKLDHILQEKYPNIKGFLCASQQEELSRISQRFKNAKAEAEDLRNELENKKIEIQTMREKNNTLIGTNKTLSKQNKILCDKFDKLTIDEKEILKGCNEEIKIKLERLNERLGSWEKSKEKYETSLKDKEKMLADAEKKTNTLSKELDNLRSRFGNLEGNTSERITIKNILQSRPDISAEECNFLMVEQIDSANLTTLQNTVKEIVLAVGIPYPKLRRKIPLLAIKLKYENIMLSNFAQRLHRQVYSQEMNLKKFTDQAYYDFMSTRRMDSIDHHLERCLDHLYDHILEKMVK
